PubChem BioAssay AID686938 | Drosophila RNAi Screening Center, 2013

Aim: 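Knock-downs reducing store-operated calcium influx in Drosophila cells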 (primary screen)
System: Drosophila S2R+ cells
Reagent: long dsRNA against Drosophila genes, about 0.25 µg dsRNA per well, roughly 10,000 cells
Timing: 5 days of knock-down before the calcium assay
Challenge: thapsigargin (SERCA pump blocker) to empty calcium stores; entry signal taken 4 min after adding it
Read-out: 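Duplicate raw fluo-4 intensities per well from a plate reader, at rest and four minutes after thapsigargin emptied calcium stores; entry-to-rest ratio filled for only some wells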
Reading the numbers: calcium entry signal: higher = stronger calcium signal after store depletion; entry to resting ratio: higher = more calcium entry relative to resting level; resting calcium signal: higher = higher resting calcium signal
Hit rule: 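Hit if the duplicate-averaged plate z-score for entry over resting signal is under −3; wells with weak total dye signal (Fmax z < −2) or more than 5 off-targets removed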
Meaning of the calls: active = strongly reduced calcium entry; inactive = no strong reduction
In all, the deposit lists about 23,000 reagents; shown is a random part of those with a known target gene and a result. Over the whole deposit, 75 (0.33%) were called active. 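Raw plate signals without normalisation; calls rest on plate z-scores that were not deposited; ratio present for only 364 wells.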 Names joined by + are all predicted targets of the reagent. Not stated in the record: the dose of the treatment.

no.	gene	amplicon	calcium entry signal, replicate 1 (fluorescence units)	calcium entry signal, replicate 2 (fluorescence units)	entry to resting ratio	resting calcium signal, replicate 1 (fluorescence units)	resting calcium signal, replicate 2 (fluorescence units)	activity call
1	pyd3	DRSC15459	3.07e7	6.66e7		1.19e7	2.77e7	inactive
2	pyd3	DRSC21640	3.96e7	2.86e7		2.37e7	1.52e7	inactive
3	CG31415	DRSC22409	3.12e7	3.11e7		1.58e7	1.40e7	inactive
4	Vps13D	DRSC09818	2.08e7	3.28e7		1.14e7	1.46e7	inactive
5	Vps13D	DRSC09819	2.72e7	3.22e7		1.40e7	1.60e7	inactive
6	CG31088	DRSC13123	2.86e7	3.65e7		1.29e7	1.66e7	inactive
7	CG14005	DRSC02337	4.58e7			2.01e7		inactive
8	CG1986	DRSC18197	2.31e7	3.53e7		1.35e7	1.98e7	inactive
9	CG30154	DRSC05889	2.24e7	4.10e7		1.17e7	1.84e7	inactive
10	Act57B	DRSC04042	2.52e7			1.45e7		inactive
11	CG10195	DRSC02026	6.38e7	4.90e7		3.03e7	2.03e7	inactive
12	Gbp2	DRSC06069	2.24e7	2.27e7		1.01e7	1.12e7	inactive
13	DIP-kappa	DRSC01336	3.94e7	4.01e7		2.01e7	1.89e7	inactive
14	DIP-kappa	DRSC01337	4.02e7	4.33e7		1.85e7	1.88e7	inactive
15	ab	DRSC01162	3.27e7	3.46e7		1.73e7	1.70e7	inactive
16	ab	DRSC03478	3.74e7	2.80e7		2.13e7	1.61e7	inactive
17	ab	DRSC23151	3.01e7	3.25e7		1.62e7	1.51e7	inactive
18	ab	DRSC23179	3.33e7	3.38e7		1.77e7	1.49e7	inactive
19	cnk	DRSC07595	4.17e7	4.63e7		2.01e7	2.29e7	inactive
20	CG4914	DRSC10458	3.72e7	5.39e7		1.75e7	2.17e7	inactive
21	pes	DRSC03033	2.98e7	3.90e7		1.28e7	1.68e7	inactive
22	CG14736	DRSC14956	3.17e7	2.46e7		1.57e7	1.32e7	inactive
23	CG12863	DRSC06203	2.90e7	4.37e7		1.59e7	1.91e7	inactive
24	Sod3	DRSC07324	2.75e7	3.57e7		1.29e7	1.62e7	inactive
25	Vdup1	DRSC08586	3.60e7	4.47e7		1.76e7	1.95e7	inactive
26	ppk25	DRSC04973	3.40e7	3.51e7		1.68e7	1.50e7	inactive
27	CG30187	DRSC22461	2.80e7	3.82e7		1.61e7	1.70e7	inactive
28	CG7601	DRSC14131	2.86e7	2.78e7		1.36e7	1.30e7	inactive
29	ETHR	DRSC15915	2.76e7	3.36e7		3.58e7	1.52e7	inactive
30	Or59a	DRSC04631	3.09e7	4.33e7		1.74e7	2.03e7	inactive
31	muskelin	DRSC07273	3.53e7	3.60e7		1.84e7	1.69e7	inactive
32	lin-28	DRSC10261	3.32e7	3.89e7		1.76e7	1.63e7	inactive
33	CG10254	DRSC14153	4.10e7	3.34e7		1.82e7	1.53e7	inactive
34	mRpL11	DRSC15482	2.84e7	4.76e7		1.38e7	5.65e7	inactive
35	fra	DRSC07621	3.21e7	5.02e7		1.64e7	2.08e7	inactive
36	smash	DRSC12139	2.95e7	3.48e7		1.40e7	2.15e7	inactive
37	smash	DRSC12141	3.26e7	3.54e7		1.42e7	2.10e7	inactive
38	smash	DRSC12239	3.29e7	4.91e7		1.56e7	2.08e7	inactive
39	smash	DRSC12289	3.12e7	4.90e7		1.59e7	2.20e7	inactive
40	CG2898	DRSC18238	2.43e7	3.98e7		1.21e7	1.68e7	inactive
41	CG15554	DRSC15092	4.64e7	6.13e7		2.30e7	2.50e7	inactive
42	Yod1	DRSC10433	5.94e7	4.76e7		3.86e7	1.78e7	inactive
43	PIG-S	DRSC14643	5.68e7	4.24e7		2.47e7	1.86e7	inactive
44	PIG-S	DRSC15388	3.75e7	4.50e7		1.77e7	1.96e7	inactive
45	PIG-S	DRSC15952	4.69e7	4.59e7		2.11e7	1.89e7	inactive
46	AsnRS-m	DRSC07010	3.71e7	4.13e7		1.56e7	1.70e7	inactive
47	Gr85a	DRSC12760	2.41e7	3.13e7		1.24e7	1.37e7	inactive
48	Hsdl2	DRSC15839	3.27e7	4.67e7		1.70e7	2.08e7	inactive
49	Tom7	DRSC05135	2.21e7	3.62e7		1.15e7	1.53e7	inactive
50	Tom7	DRSC07113	2.83e7	3.76e7		1.46e7	1.73e7	inactive
51	CG34136	DRSC01833	1.66e7	3.24e7		8.01e6	2.74e7	inactive
52	CG13361	DRSC17896	5.19e7	4.10e7	2.3	2.30e7	1.89e7	inactive
53	Cad86C	DRSC15587	3.81e7	3.63e7		1.90e7	1.92e7	inactive
54	Cad86C	DRSC15611	3.13e7	4.15e7		1.62e7	1.97e7	inactive
55	Atet	DRSC00263	1.85e7	1.97e7		9.99e6	1.07e7	inactive
56	CG31805	DRSC01563	2.64e7	3.40e7		1.52e7	1.66e7	inactive
57	128up	DRSC05027	3.64e7	3.08e7		1.57e7	1.52e7	inactive
58	Tsf1	DRSC20296	4.63e7	3.18e7		2.21e7	1.37e7	inactive
59	CG31806	DRSC02787	4.10e7	2.66e7		1.89e7	1.32e7	inactive
60	CNT2	DRSC07073	4.72e7	4.23e7		2.00e7	1.90e7	inactive
61	CG12483	DRSC08278	3.01e7	3.95e7		1.47e7	1.68e7	inactive
62	CG18273	DRSC18150	2.32e7	2.83e7	1.9	1.21e7	1.22e7	inactive
63	CG18273	DRSC18505	2.97e7	3.25e7		1.75e7	1.71e7	inactive
64	CG10097 + CG10096	DRSC14189	3.60e7	4.86e7		1.57e7	2.04e7	inactive
65	CG10097 + CG10096	DRSC14190	2.92e7	3.85e7		1.73e7	1.98e7	inactive
66	bic	DRSC07584	2.41e7	3.30e7		1.34e7	1.89e7	inactive
67	r + CG13012	DRSC19531	3.18e7	2.88e7		1.76e7	1.37e7	inactive
68	mbf1	DRSC11365	2.74e7	3.62e7		1.27e7	2.63e7	inactive
69	PNPase	DRSC14304	1.99e7	2.76e7		9.26e6	1.29e7	inactive
70	CG2909	DRSC18241	3.46e7	3.49e7		1.94e7	1.79e7	inactive
71	CG14212	DRSC19568	3.32e7	3.86e7		1.90e7	1.78e7	inactive
72	CG42662 + CG30080	DRSC05571	4.41e7	4.10e7		2.09e7	1.68e7	inactive
73	CG6283	DRSC16009	3.02e7	5.51e7		1.68e7	2.35e7	inactive
74	CG6785	DRSC02993	4.97e7			2.48e7		inactive
75	EndoG	DRSC07292	3.98e7	3.36e7		1.73e7	1.60e7	inactive
76	EndoG	DRSC22746	3.60e7	4.83e7		1.99e7	2.35e7	inactive

7 entries already listed, sorted by “resting calcium signal, replicate 2 (fluorescence units)”, highest first:
gene	amplicon	calcium entry signal, replicate 1 (fluorescence units)	calcium entry signal, replicate 2 (fluorescence units)	entry to resting ratio	resting calcium signal, replicate 1 (fluorescence units)	resting calcium signal, replicate 2 (fluorescence units)	activity call
cnk	DRSC07595	4.17e7	4.63e7		2.01e7	2.29e7	inactive
CG4914	DRSC10458	3.72e7	5.39e7		1.75e7	2.17e7	inactive
CG12863	DRSC06203	2.90e7	4.37e7		1.59e7	1.91e7	inactive
pes	DRSC03033	2.98e7	3.90e7		1.28e7	1.68e7	inactive
ab	DRSC23151	3.01e7	3.25e7		1.62e7	1.51e7	inactive
ab	DRSC23179	3.33e7	3.38e7		1.77e7	1.49e7	inactive
CG14736	DRSC14956	3.17e7	2.46e7		1.57e7	1.32e7	inactive
